Experimental data taken from paper PMC5440813.
No constants are given. Whether binding was seen depends on the method and setting. For some assays here: In cells and extracts the contact can be indirect. Some entries that bind do so weakly or less than the wild type. Blank lines part the entries; values can stand above or below the binder they belong to.

Columns and labels:
[1] = target: T1, ACO3-VYNE (Arabidopsis thaliana) (UniProt Q9SIB9); experiment: split reporter; BiFC: SCYCE- and VYNE-tagged proteins transiently expressed in Arabidopsis mesophyll protoplasts, confocal microscopy with MitoTracker orange
T1 sequence: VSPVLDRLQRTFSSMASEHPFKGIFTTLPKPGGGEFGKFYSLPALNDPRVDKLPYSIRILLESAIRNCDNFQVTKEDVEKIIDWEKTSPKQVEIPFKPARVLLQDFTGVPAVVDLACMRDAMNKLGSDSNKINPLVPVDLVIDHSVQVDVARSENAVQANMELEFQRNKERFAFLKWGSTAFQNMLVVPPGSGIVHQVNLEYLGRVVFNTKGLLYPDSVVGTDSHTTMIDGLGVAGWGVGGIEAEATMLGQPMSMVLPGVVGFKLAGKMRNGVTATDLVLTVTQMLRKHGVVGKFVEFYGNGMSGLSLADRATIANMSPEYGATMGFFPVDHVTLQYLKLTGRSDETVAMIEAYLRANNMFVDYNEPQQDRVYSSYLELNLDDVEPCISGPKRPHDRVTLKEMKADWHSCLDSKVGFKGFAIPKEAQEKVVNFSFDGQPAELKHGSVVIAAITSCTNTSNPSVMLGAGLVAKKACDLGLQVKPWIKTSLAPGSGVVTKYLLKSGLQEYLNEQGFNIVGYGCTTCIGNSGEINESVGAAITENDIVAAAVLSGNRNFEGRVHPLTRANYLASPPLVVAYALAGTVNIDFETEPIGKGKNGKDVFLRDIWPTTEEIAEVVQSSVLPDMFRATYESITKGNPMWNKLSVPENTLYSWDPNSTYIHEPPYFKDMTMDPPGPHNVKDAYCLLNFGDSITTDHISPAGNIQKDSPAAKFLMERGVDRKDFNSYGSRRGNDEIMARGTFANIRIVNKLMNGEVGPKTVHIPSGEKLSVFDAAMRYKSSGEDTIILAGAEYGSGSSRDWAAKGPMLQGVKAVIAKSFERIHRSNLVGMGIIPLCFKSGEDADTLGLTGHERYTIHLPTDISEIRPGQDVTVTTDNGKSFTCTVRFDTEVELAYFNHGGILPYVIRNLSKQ

[2] = target: T2, ACO2-VYNE (Arabidopsis thaliana) (UniProt Q94A28); experiment: as above
T2 sequence: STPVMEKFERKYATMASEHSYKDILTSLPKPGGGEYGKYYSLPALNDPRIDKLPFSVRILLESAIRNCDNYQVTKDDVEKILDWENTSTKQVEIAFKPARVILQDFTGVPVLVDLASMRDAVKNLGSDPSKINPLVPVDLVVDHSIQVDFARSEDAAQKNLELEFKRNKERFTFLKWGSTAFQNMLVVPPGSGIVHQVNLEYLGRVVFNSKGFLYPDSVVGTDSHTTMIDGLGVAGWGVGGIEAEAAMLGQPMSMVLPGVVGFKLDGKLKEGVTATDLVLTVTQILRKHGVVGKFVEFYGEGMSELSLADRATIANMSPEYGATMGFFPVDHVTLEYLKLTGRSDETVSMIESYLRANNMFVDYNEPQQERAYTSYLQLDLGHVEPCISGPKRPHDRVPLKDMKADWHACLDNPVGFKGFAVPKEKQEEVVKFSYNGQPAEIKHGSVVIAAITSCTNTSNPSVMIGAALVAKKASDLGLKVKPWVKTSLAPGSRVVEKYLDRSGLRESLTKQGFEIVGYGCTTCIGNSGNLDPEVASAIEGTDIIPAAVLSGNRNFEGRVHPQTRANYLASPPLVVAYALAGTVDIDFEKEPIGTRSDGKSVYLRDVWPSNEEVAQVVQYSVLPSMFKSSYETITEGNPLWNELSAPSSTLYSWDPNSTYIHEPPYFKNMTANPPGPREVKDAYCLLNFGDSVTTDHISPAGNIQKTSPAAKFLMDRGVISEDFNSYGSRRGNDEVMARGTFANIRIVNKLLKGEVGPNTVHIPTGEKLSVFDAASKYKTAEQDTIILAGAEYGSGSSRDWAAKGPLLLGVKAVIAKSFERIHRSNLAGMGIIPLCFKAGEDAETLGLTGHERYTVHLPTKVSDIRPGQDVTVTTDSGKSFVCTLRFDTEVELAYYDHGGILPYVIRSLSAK

[3] = target: T3, aconitase 3 (ACO3) (Arabidopsis thaliana) (UniProt Q9SIB9); experiment: split reporter; split luciferase (split-LUC) in transfected Arabidopsis mesophyll protoplasts, 96-well plate, ViviRen substrate, relative luminescence; positive: top 10% of scores (3.7)
T3 sequence: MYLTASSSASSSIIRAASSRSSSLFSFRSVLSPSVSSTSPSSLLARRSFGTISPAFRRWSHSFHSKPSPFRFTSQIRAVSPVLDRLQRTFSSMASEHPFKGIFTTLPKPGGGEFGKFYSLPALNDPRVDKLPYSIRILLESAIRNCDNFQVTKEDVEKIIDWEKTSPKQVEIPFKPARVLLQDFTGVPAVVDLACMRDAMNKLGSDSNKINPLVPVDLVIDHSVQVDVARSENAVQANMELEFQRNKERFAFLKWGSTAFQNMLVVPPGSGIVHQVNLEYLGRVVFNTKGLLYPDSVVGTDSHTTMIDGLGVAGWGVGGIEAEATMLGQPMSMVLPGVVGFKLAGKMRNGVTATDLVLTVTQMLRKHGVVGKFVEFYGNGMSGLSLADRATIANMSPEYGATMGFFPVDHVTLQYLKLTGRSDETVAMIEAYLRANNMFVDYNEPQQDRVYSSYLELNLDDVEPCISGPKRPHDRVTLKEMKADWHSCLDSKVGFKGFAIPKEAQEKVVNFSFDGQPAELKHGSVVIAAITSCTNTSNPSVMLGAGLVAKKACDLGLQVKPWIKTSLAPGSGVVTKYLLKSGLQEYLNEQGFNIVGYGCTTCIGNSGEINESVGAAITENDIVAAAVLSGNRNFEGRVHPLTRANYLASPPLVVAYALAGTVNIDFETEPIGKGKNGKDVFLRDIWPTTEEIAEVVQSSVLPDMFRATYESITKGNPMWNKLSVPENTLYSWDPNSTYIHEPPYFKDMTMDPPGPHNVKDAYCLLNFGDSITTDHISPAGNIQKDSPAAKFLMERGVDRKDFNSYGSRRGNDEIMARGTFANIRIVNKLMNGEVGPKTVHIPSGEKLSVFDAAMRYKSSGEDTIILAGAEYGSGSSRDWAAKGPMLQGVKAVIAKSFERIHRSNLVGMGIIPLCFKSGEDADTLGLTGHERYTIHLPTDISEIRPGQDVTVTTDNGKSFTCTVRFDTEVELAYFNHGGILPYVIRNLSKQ

[4] = target: T3, aconitase 3 (ACO3) (Arabidopsis thaliana); experiment: two-hybrid; yeast two-hybrid, mating of AH109 and Y187, plates without Leu, Trp and His with 3-aminotriazole; colonies scored at 3, 5 and 8 days, positive: colonies at 3 or 5 days
[5] = target: T4, IDH6-SCYCE (Arabidopsis thaliana) (UniProt Q8LG77); experiment: split reporter; BiFC: SCYCE- and VYNE-tagged proteins transiently expressed in Arabidopsis mesophyll protoplasts, confocal microscopy with MitoTracker orange
T4 sequence: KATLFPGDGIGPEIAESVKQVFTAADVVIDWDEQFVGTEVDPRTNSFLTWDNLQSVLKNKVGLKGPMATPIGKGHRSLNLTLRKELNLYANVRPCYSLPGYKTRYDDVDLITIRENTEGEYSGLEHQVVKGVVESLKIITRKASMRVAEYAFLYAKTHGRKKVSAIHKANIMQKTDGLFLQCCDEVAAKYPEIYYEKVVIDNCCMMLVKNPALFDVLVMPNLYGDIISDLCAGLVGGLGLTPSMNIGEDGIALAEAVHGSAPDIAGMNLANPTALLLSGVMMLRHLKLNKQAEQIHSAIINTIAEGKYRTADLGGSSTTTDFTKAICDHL

binding [1]: binds | binding [2]: binds
B1: CSY4-SCYCE (enzyme, UniProt P20115 17-474)
chain: VQGQQSSLSNSVRWIQMQSSTDLDLKSQLQELIPEQQDRLKKLKSEHGKVQLGNITVDMVIGGMRGMTGLLWETSLLDPEEGIRFRGLSIPECQKVLPTAQSGAEPLPEGLLWLLLTGKVPSKEQVEALSKDLANRAAVPDYVYNAIDALPSTAHPMTQFASGVMALQVQSEFQKAYENGIHKSKFWEPTYEDCLNLIARVPVVAAYVYRRMYKNGDSIPSDKSLDYGANFSHMLGFDDEKVKELMRLYITIHSDHEGGNVSAHTGHLVGSALSDPYLSFAAALNGLAGPLHGLANQEVLLWIKSVVEECGEDISKEQLKEYVWKTLNSGKVIPGYGHGVLRNTDPRYVCQREFALKHLPDDPLFQLVSKLYEVVPPVLTELGKVKNPWPNVDAHSGVLLNHYGLTEARYYTVLFGVSRSLGICSQLIWDRALGLALERPKSVTMDWLEAHCKKASSA

binding [3]: binds | binding [4]: binds
B2: aconitase 2 (ACO2) (enzyme, UniProt Q94A28 1-995)
chain: MYRRATSGVRSASARLSSSLSRIASSETASVSAPSASSLRNQTNRSKSFSSALRSFRVCSASTRWSHGGSWGSPASLRAQARNSTPVMEKFERKYATMASEHSYKDILTSLPKPGGGEYGKYYSLPALNDPRIDKLPFSVRILLESAIRNCDNYQVTKDDVEKILDWENTSTKQVEIAFKPARVILQDFTGVPVLVDLASMRDAVKNLGSDPSKINPLVPVDLVVDHSIQVDFARSEDAAQKNLELEFKRNKERFTFLKWGSTAFQNMLVVPPGSGIVHQVNLEYLGRVVFNSKGFLYPDSVVGTDSHTTMIDGLGVAGWGVGGIEAEAAMLGQPMSMVLPGVVGFKLDGKLKEGVTATDLVLTVTQILRKHGVVGKFVEFYGEGMSELSLADRATIANMSPEYGATMGFFPVDHVTLEYLKLTGRSDETVSMIESYLRANNMFVDYNEPQQERAYTSYLQLDLGHVEPCISGPKRPHDRVPLKDMKADWHACLDNPVGFKGFAVPKEKQEEVVKFSYNGQPAEIKHGSVVIAAITSCTNTSNPSVMIGAALVAKKASDLGLKVKPWVKTSLAPGSRVVEKYLDRSGLRESLTKQGFEIVGYGCTTCIGNSGNLDPEVASAIEGTDIIPAAVLSGNRNFEGRVHPQTRANYLASPPLVVAYALAGTVDIDFEKEPIGTRSDGKSVYLRDVWPSNEEVAQVVQYSVLPSMFKSSYETITEGNPLWNELSAPSSTLYSWDPNSTYIHEPPYFKNMTANPPGPREVKDAYCLLNFGDSVTTDHISPAGNIQKTSPAAKFLMDRGVISEDFNSYGSRRGNDEVMARGTFANIRIVNKLLKGEVGPNTVHIPTGEKLSVFDAASKYKTAEQDTIILAGAEYGSGSSRDWAAKGPLLLGVKAVIAKSFERIHRSNLAGMGIIPLCFKAGEDAETLGLTGHERYTVHLPTKVSDIRPGQDVTVTTDSGKSFVCTLRFDTEVELAYYDHGGILPYVIRSLSAK

binding [5]: binds
B3: ACO3-VYNE (enzyme, UniProt Q9SIB9 79-990)
chain: T1 sequence
